From patent US20080071151A1
These are yes or no findings as the source states them, for the method shown. Some results given as binding are weak or reduced against the parent protein; the word gives no strength.

By UniProt entry, the sequences of proteins in these tests, tags left out. Where a name states a change or a piece, a line headed by the entry shows the natural chain unless it says otherwise.
UniProt P17948: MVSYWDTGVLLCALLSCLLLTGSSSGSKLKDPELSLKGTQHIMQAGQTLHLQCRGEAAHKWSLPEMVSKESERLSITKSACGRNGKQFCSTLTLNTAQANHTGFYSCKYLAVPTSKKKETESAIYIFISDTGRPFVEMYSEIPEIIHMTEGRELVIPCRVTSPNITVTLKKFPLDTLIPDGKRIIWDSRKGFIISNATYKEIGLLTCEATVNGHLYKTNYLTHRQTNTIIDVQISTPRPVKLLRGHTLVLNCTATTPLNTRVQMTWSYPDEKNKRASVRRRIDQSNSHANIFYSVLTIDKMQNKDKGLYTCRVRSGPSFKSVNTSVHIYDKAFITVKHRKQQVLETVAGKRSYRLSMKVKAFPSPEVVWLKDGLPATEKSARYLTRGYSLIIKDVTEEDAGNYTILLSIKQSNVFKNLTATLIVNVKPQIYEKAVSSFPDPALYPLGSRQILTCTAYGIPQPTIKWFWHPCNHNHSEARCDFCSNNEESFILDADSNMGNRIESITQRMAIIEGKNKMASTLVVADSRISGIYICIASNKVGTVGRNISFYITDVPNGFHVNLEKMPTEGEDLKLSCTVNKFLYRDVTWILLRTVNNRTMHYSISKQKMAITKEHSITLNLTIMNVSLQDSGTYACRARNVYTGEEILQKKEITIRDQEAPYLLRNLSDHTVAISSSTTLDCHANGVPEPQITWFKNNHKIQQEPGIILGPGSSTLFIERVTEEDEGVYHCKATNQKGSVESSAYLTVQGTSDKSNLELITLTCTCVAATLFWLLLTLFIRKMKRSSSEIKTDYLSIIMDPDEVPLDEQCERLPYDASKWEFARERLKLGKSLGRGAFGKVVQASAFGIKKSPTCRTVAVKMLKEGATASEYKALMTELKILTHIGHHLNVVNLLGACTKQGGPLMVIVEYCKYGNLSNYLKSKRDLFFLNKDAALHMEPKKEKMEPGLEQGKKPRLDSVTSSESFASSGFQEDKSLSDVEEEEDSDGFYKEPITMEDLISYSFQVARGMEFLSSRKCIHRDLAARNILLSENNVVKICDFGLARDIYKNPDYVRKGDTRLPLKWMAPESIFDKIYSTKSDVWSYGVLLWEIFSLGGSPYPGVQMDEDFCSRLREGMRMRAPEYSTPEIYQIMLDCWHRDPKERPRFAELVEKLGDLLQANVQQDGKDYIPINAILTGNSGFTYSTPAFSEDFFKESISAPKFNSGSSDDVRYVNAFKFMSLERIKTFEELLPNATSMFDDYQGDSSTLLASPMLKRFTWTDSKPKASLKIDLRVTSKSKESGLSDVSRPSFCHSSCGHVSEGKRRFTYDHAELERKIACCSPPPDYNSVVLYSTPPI

Target: soluble fms-like tyrosine kinase 1 (sFlt-1) (human) (UniProt P17948)
Assay: chemiluminescent sandwich assay on paramagnetic particles; sFlt-1 captured by a monoclonal antibody and detected with PlGF-acridinium

B1: PlGF conjugated to acridinium (ligand)
chain: LPAVPPQQWALSAGNGSSEVEVVPFQEVWGRSYCRALERLVDVVSEYPSEVEHMFSPSCVSLLRCTGCCGDENLHCVPVETANVTMQLLKIRSGDRPSYVELTFSQHVRCECRHSPGRQSPDMPGDFRADAPSFLPPRRSLPMLFRMEWGCALTGSQSAVWPSSPVPEEIPRMHPGRNGKKQQRKPLREKMKPERCGDAVPRR
modifications: conjugated to acridinium (site not stated)
In the case of B1, the binding is reported as “binds”.
